The full ranking holds about 33,000 sequences; the median of “E-score (-0.5 to 0.5)” is about -0.016, and the highest 2% start at about 0.3. This is one part of the list.
Molecular target: T1, Yer184c (UniProt P39961)
T1 sequence: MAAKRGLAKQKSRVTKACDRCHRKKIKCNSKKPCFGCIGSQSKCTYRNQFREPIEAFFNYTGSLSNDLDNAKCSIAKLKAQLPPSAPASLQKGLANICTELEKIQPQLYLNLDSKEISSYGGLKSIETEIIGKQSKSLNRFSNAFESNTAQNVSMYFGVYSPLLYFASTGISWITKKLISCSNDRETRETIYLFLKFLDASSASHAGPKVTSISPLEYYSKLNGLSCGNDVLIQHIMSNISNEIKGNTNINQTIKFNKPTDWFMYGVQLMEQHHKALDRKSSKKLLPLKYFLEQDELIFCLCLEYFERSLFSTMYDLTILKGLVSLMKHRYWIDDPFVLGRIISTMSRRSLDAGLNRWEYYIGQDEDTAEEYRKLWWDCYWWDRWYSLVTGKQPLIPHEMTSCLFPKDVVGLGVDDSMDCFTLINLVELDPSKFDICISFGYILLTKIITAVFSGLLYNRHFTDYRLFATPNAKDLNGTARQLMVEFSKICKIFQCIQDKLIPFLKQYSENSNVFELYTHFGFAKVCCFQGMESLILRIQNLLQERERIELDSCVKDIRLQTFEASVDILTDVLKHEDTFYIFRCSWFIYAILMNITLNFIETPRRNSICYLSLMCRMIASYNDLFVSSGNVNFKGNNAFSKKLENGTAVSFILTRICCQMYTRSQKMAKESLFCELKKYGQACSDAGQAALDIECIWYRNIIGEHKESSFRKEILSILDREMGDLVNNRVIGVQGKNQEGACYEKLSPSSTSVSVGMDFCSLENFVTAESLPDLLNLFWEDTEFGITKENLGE
Assay: PBM E-score (8-mer binding enrichment) (E-score (-0.5 to 0.5)); higher = stronger / more preferred TF binding
Details: protein concentration: 100 nM; construct: GST-full length
How it was run: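 E-scores (a modified Wilcoxon-Mann-Whitney statistic) were assigned by the Universal PBM Analysis Suite to every ungapped eight-base word pooled with its reverse complement. The input came from universal all-10-mer Agilent arrays made double-stranded by primer extension and probed with GST-tagged yeast transcription factors at about 100-200 nM. Fluorescent anti-GST detected bound protein, and masliner normalised the scans.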

Point of comparison: TAACGGTA, “PBM E-score” value 0.0369. Against it:
- GTCAATGA — lower, -0.177
- AAAGACTT — lower, -0.0513
- CTGAGATA — higher, 0.0957
- ACTGAGCT — lower, -0.143
- CAAGGCGC — lower, -0.041
- AAAATGCG — higher, 0.148
- GGGTGCAA — higher, 0.0462
- TAAAGATA — higher, 0.188
- GGGAAAGA — lower, -0.111
- TATTCTGA — lower, -0.118
- CTATGGAG — lower, -0.354
- AAGTTTAC — higher, 0.121
- GCTTGAGA — lower, -0.153
- AGTACGGC — higher, 0.0572
- ATAGTTTA — lower, 0.0274
- CTAGACGA — lower, -0.117
- ACACCGGG — higher, 0.13
- AGACTGGG — lower, -0.186
- CCAGCTCC — lower, -0.149
- GAATTGCA — lower, -0.0409
- ATACCTAC — lower, -0.0307
- GATGACCC — lower, -0.142
- ACTCGAAC — lower, -0.0196
- AGACTGCG — lower, -0.191
- AGGAACTA — lower, -0.103
- ATGCCAGG — lower, -0.0572
- ATAGGAAG — lower, -0.0518
- CGTGATCA — lower, 0.0205
- AATCGTTA — lower, 0.0153
- TCCACGGA — higher, 0.304
- ATATGCCC — lower, -0.153
- ATAAAGCA — lower, -0.1
- ATATCAAG — higher, 0.146
- CATACAGG — lower, -0.117
- AGATGTAA — higher, 0.128
- CCCCTGAG — lower, -0.296
- CTATCATC — higher, 0.0514
- ACTGAGGG — lower, -0.329
- CGGTCCAA — lower, 0.0315
- GTTTTCAA — higher, 0.194
- GGAGCATA — higher, 0.0471
- CCGCCACG — lower, -0.0977
- CACCGTTC — lower, -0.00343
- ACTATGGG — lower, -0.181
- ACTTGGTC — higher, 0.0981
- AGTCGTCC — lower, -0.155
- ACTGCCAC — lower, -0.148
- AAGCATAC — lower, 0.00296
- GGCGCTGA — lower, 0.0249
- ATCATGGC — lower, -0.113
- ACATGTCG — lower, -0.224
- TACTTTGA — higher, 0.0968
- GGGTCCGA — higher, 0.113
- GGATCGCA — lower, -0.0907
- CATGGAGA — lower, -0.0403
- CCAGGAGA — lower, -0.149
- CCTGATAA — higher, 0.0644
- CCCCTAAA — lower, -0.312
- CAGGCTGC — lower, -0.22
- GTATTAAA — higher, 0.248
- CATCGCTC — lower, -0.176
- CCTAACAA — higher, 0.168
- CATAGATA — lower, -0.0363
- TTCGCGAA — higher, 0.279
- CGGAAAGC — higher, 0.282
- AAACTTAG — lower, -0.0561
- ATCTGCCC — lower, -0.194
- TCGATACA — higher, 0.133
- ATTAGGAG — lower, -0.0858
- CCGATAAC — higher, 0.251
- ACAGTGAT — lower, -0.112
- AATGCGGG — higher, 0.101
- ATGGAAGC — lower, 0.0186
- CAGACATC — lower, 0.0195
- GTTTTGAA — higher, 0.211
- GGCGGTAA — higher, 0.285
- ATCGCACC — lower, -0.0521
- CCAAGTGA — lower, -0.0975
- AAGGTTCC — higher, 0.143
- GGCGTACC — lower, 0.0326
- CTTGAATA — higher, 0.114
- CCTCCCAA — lower, -0.207
- ACGCTGCT — lower, -0.139
- GAACTAGA — higher, 0.201
- GGAGGAGA — lower, -0.155
- CAAATTGC — higher, 0.0952
- CCGGTGAC — higher, 0.218
- ACTAGCAC — lower, -0.174
- CTCCGATA — higher, 0.108
- ATTTTATA — higher, 0.273
- AGTTGTAA — higher, 0.119
- GCTTCTAC — lower, -0.0215
- AGCAATGG — lower, -0.0509
- ATGGTGAG — lower, -0.28
- GACCAGTC — lower, -0.16
- AGGACAGA — lower, -0.105
- TTGTCAAA — higher, 0.148
- GTACTCAC — lower, -0.014
- AAGTAAAG — lower, -0.0673
- TAGGTAGA — lower, 0.0124
- ATTCCCAG — higher, 0.118
- CCTTCAAA — higher, 0.132
- CGTCTCTA — lower, -0.146
- ATATGCTA — lower, -0.0512
- GCAAATAA — higher, 0.214
- AACCGTCA — lower, -0.162
- CTGGCGAC — lower, -0.282
- AACCTTCG — higher, 0.112
- AGCAGACA — lower, -0.168
- CACAAAGG — lower, -0.113
- ACGGACAT — higher, 0.235
- CCACAGCC — lower, -0.123
- CCCAGTCC — lower, -0.167
- CCCACTGA — lower, -0.149
- GTGACATA — higher, 0.121
- CTCCAGAG — lower, -0.154
- CCTCCTAG — lower, -0.125
- AGGACTGG — lower, -0.178
- AATTCAAA — higher, 0.116
- ACCAAGGG — lower, -0.121
- GGGTGTAA — lower, -0.0368
- ATAGTCAA — lower, 0.0249
- GGTCGCGA — higher, 0.0817
- AGGGTGCC — lower, -0.26
- CAGCTCGG — higher, 0.235
- GTATCGGA — higher, 0.208
- ACACGAAT — higher, 0.122
- AAGCCAGA — lower, -0.0741
- AACCTAAT — higher, 0.0654
- ACTACCGA — lower, -0.0592
- ATTCCGCG — higher, 0.242
- AATATGAA — lower, 0.0316
- CTGCCTGA — lower, -0.0119
- CACGGAAA — higher, 0.345
- ATCACAAT — higher, 0.0634
- TAGATGGA — lower, -0.162
- GAGTCCGC — lower, -0.0485
- GGACGCAC — lower, -0.128
- GTAGAATA — higher, 0.112
- TCCACGCA — lower, -0.0144
- CTAGCAAC — lower, -0.00621
- ACGTGACG — lower, -0.126
- AAATAAGG — higher, 0.0691
- AGCTCCAC — lower, -0.247
- AGGAAGAC — lower, -0.203
- ACACGATG — lower, -0.156
- GGTATAAC — lower, -0.069
- GCATTAAC — higher, 0.095
- ATCGGCGC — higher, 0.275
- ACGCCTCA — lower, -0.0245
- AGTTTTAG — lower, 0.0123
- GTTACTTA — higher, 0.13
- GCGCCCGA — higher, 0.145
- AAGACGCA — lower, -0.0665
- CACCAGAG — lower, -0.239
- TAGCGACA — lower, -0.00465
- ATCCTAAA — lower, -0.068
- GGACATGA — lower, -0.0116
- ACAACTAA — higher, 0.182
- ACTGACAA — higher, 0.129
- GCAAGTCA — lower, -0.0698
- ACCTAATA — higher, 0.117
- TCGGGGCA — lower, -0.0736
- TCATCGGA — higher, 0.259
- GTGCTTAA — higher, 0.116
- CCAGAAGG — higher, 0.0416
- GACCTCCC — lower, -0.374
- ACATTTTC — higher, 0.0488
- TAGGATAA — lower, 0.00381
- CGCTAACC — lower, 0.00582
- ATCGTCAC — lower, -0.13

From the supplement of paper PMC3334620
